Laboratory results: patent US6410751B1, “Water soluble tri-substituted 1, 2-dioxetane compounds having increased storage stability, synthetic processes and intermediates” (Lumigen, Inc., priority 1995, dated 2002)

Test: Reagent carryover in capsule chemistry analysis system (TECHNICON IMMUNO 1 TSH method, luminescence detection)
Details: for % Reduction of chemical carryover: relative to LUMIGEN PPD; for Chemical carryover, ppm (peak cps in adjacent test divided by peak cps in test N): signal for the N+1 test (worst case), dioxetanes at the same concentration
Procedure: The experiments described below were performed on a prototype capsule chemistry analysis system essentially as described by Kumar et al in U.S. Pat. No. 5,399,497, with the detection system configured to measure light emission (luminescence). The method and apparatus comprises feeding a stream of fluid segments through a Teflon tube, where the tube has an isolating layer of fluorocarbon oil on the inner surface. Sample and reagents are aspirated into this tube, and the resulting liquid segments are moved through the tube. Separation steps and washing steps which are required by heterogeneous immunoassay methods were facilitated by means of magnets, which transferred magnetic particles from one aqueous segment to another. The detection system was comprised of a photon counter and a fiber optic read head, in which the fibers were radially arranged around the Teflon tube to maximize the efficiency of light collection.
The TECHNICON IMMUNO 1® TSH method (Bayer Corporation, Tarrytown, N.Y., USA) was used as a representative immunoassay method for the testing of luminogenic reagents. The method principle involved incubation of a specimen containing the antigen TSH with a first reagent (R1), which contained a fluorescein-labeled antibody, and simultaneously with a second reagent (R2), which contained an antibody-alkaline phosphatase (ALP) conjugate. Each antibody was specific for a different epitope on the TSH antigen, so that formation of a “sandwich” was promoted between these two antibodies and the TSH antigen. Magnetic particles containing bound anti-fluorescein were used to capture the sandwich, and the particles were subsequently washed to remove unbound reagents. The particles were then exposed to the luminogenic reagent, which contained a substrate for ALP, and luminescence was measured.
R1 (10.4 μl of serum-based solution containing fluorescein-labeled antibody to TSH), R2 (10.4 μl of serum-based solution containing antibody to TSH conjugated with ALP) and S (7.2 μl of serum sample) were aspirated into the second segment. The next two segments (W1 and W2) were comprised of the same wash buffer used above in the MP segment. The fifth segment was R3, of the composition described above, with the key elements being the luminogenic substrate and the luminescence enhancer. The sixth segment was an inter-test buffer (same as the particle buffer described above), which was used to isolate adjacent tests. Magnetic transfers are depicted by the arrows in the FIG. 1. These transfers were facilitated by one of two magnetic transfer assemblies (M1 or M2). After an incubation of 13 minutes, during which sandwich formation occurred, M1 transferred the magnetic particles into the R1+R2+S segment to initiate capture. After an additional period of 6 minutes, M2 transferred the particles into the first wash segment. After an additional period of 12 seconds, M2 transferred the particles into the second wash segment. After another period of 12 seconds, M2 transferred the particles into the R3 segment, and light emission from this segment was detected as the stream of aqueous segments passed back and forth through the luminometer readhead.
Since the Teflon tube is transparent to light, a problem with light piping (or “optical carryover”) was expected. Specifically, some of the photons emitted from the R3 segment of an adjacent test could enter the Teflon material, propagate down the length of the tube and be scattered into the detector during the measurement of the signal of the test of interest. […] Instead of declining rapidly with distance from test N, peaks of light output were observed centered around the R3 segments of the adjacent test packages, as shown in FIG. 2 of the drawings. In FIG. 2, test N produced a high level of luminescence, approximately 7.5 million counts per seconds (cps). […]

O=C([O-])C(CCOC1(c2cccc(OP(=O)([O-])[O-])c2)OOC12C1CC3CC(C1)CC2C3)C(=O)[O-].[Na+].[Na+].[Na+].[Na+] (stereo not drawn) [Dioxetane 1]
% Reduction of chemical carryover (N+1 test): 100%
Chemical carryover, ppm (peak cps in adjacent test divided by peak cps in test N): 0 ppm

COC1(c2cccc(OP(=O)([O-])[O-])c2)OOC12C1CC3CC(C1)CC2C3.[Na+].[Na+] (stereo not drawn) [LUMIGEN PPD, [4-(methoxy)-4-(3-phosphoryloxyphenyl)]spiro-[1,2-dioxetane-3,2′-tricyclo[3.3.1.1^3,7]-decane], reference compound]
Carryover compared with that observed with CSPD (N+1 test): more than twice as high
Chemical carryover, ppm (peak cps in adjacent test divided by peak cps in test N): 1640 ppm

O=C([O-])CCCOC1(c2cccc(OP(=O)([O-])[O-])c2)OOC12C1CC3CC(C1)CC2C3.[Na+].[Na+].[Na+] (stereo not drawn) [Dioxetane 2, [4-(3-carboxypropoxy)-4-(3-phosphoryloxyphenyl)]spiro[1,2-dioxetane-3,2′-tricyclo[3.3.1.1^3,7]-decane]]
% Reduction of chemical carryover (N+1 test): 84%
Chemical carryover, ppm (peak cps in adjacent test divided by peak cps in test N): 260 ppm
